These are yes or no findings as the source states them, for the method shown. A result given as binding can be weak or reduced; the word gives no strength. Where a sequence is shown, tags or fusion partners need not be part of it.
Target: BY-kinase PtkA from Bacillus subtilis, Strep-tagged (Bacillus subtilis)
Test: far-Western, overlay or dot blot; 20 ug purified TkmA separated on SDS-PAGE and blotted onto PVDF; strips incubated with Strep-tagged PtkA (methods: 20 nM, 1 h, room temperature; legend: 12 uM, 2 h) alone or mixed with SalA at different molar ratios; detected with Strep-tactin HRP conjugate; both purified

B1: SalA, transcriptional regulator of the Mrp ATPase family, Bacillus subtilis, 6x His-tagged (protein, UniProt P50863 1-352)
chain: MIREDEVRKLVGEMREPFLQRPLGELDAVKEIKIKPEKRHISVKVALAKTGTAEQMQIQQEIVNVLKGAGAETVGLRFEELPEETVAKFRAPSAEKKTLLNMDNPPVFLAVASGKGGVGKSTVSVNLAISLARLGKKVGLIDADIYGFSVPDMMGITVRPTIEGEKLLPVERFGVKVMSMGFFVEENAPVVWRGPMLGKMLNNFFHEVEWGEVDYIVLDLPPGTGDVALDVHTMLPSCKEIIVSTPHPTAAFVAARAGSMAIKTDHEVVGVIENMAYYESAKTGEREYVFGKGGGDKLAEELNVPLLGRIPLKQPDWDKDQFAPSVYDENHPIGEIYQDIAKKIDAKMSVQV
- binding: binds

From paper PMC5035731
